This note sets out measurements from PMC4652056.

For this series, the target named is T1, BnWRI1 (Brassica napus) (UniProt Q2EPY6).
T1 sequence (looked up, limits assumed): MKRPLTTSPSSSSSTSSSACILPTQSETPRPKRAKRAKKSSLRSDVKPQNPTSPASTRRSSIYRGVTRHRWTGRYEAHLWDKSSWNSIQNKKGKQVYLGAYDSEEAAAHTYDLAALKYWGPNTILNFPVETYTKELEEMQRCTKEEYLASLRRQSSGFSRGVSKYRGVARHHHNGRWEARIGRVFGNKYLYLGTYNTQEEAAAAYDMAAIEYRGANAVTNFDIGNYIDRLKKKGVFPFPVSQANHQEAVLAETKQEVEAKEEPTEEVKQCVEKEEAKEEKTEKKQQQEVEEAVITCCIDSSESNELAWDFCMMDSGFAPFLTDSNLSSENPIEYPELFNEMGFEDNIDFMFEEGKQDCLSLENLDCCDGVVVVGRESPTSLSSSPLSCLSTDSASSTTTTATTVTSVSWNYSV
The series is described as follows: EMSA. The settings on record: 0.4 ug protein; 20 mM Tris-HCl pH 8.0, 250 mM NaCl, 2 mM MgCl2, 1% glycerol, 1 mg/ml BSA, 1 mM DTT, 1 h at 4 C; 6% native PAGE; recombinant protein; protein details: His (pET28a); label: none (UV-visualized); probe letters rebuilt from the primers and the genome.

Construct, isoform or probe ends are uncertain for at least one entry. A negative result means that nothing was seen under these conditions. Tags and fusion partners may be left off the protein sequences shown.

As for “GAATTCTGTTGAGTTACGAATTGGAGAATGGCTCAAAGCATCCGTACCTATTTTAAGTAGACCAAATAGTAGAATAACATAAACTACAAGGCTAGAACTAAAACACTTGTAAAATTAAGGGACTTAGAGAAAAATTACAGTCCAAAAATTTTCCCAAATAATTCGCTGTTTTTTTTATAATATAGTCTTGCTCCTGAAATCTGACGAACATAAGCTCTTTTCGCAAAACACACATCACACACCATTTTCACAACATCGTACTTATCGCCTTCCTCTCTCTCTCAATACCTCTCTCAATGAGCTC (double strand) [KASI promoter mutant AW-box [TnCnA](n)7[CG]]”, the binding result was “no binding”.
To “GAATTCTGTTGAGTTACGAATTGGAGAATGGCTCAAAGCATCCGTACCTATTTTAAGTAGACCAAATAGTAGAATAACATAAACTACAAGGCTAGAACTAAAACACTTGTAAAATTAAGGGACTTAGAGAAAAATTACAGTCCAAAAATTTCCTCGAATAATTCGCTGTTTTTTTTATAATATAGTCTTGCTCCTGAAATCTGACGAACATAAGCTCTTTTCGCAAAACACACATCACACACCATTTTCACAACATCGTACTTATCGCCTTCCTCTCTCTCTCAATACCTCTCTCAATGAGCTC (double strand) [KASI promoter (AW-box)]” belongs “binds”.
